In US20180305695:
The exact form of at least one protein or probe is not confirmed.

Target: von Willebrand factor A1 domain (Homo sapiens) (UniProt P04275)
Experiment: SPR
Conditions: 37 C; likely pM (protein 0.078-5 nM); p148: koff 0.162 1/s; purified recombinant protein; protein details: U-Protein Express V003; label: biotin (SPR); single-stranded DNA

“GGCGTGCAGTGCCTTCGGCCGTGCGGTGCCTCCGTCACGCC [ARC1172]” gave a Kd of 3.26e+08 pM.
